The values that follow come from patent publication US20170355771A1 (Biogen, published 2017).

Results are given in words; binding and its absence hold for the method and conditions named. A result given as binding can be weak or reduced; the word gives no strength.

Experiment [1] addresses GPIIb/IIIa on gel-purified human platelets (human). Nature of the experiment: flow cytometry on gel-purified human platelets, PE-labeled anti-human Fab detection; EC50 = Fab concentration at half-maximal MFI.
The target is the same in experiment [2]. Nature of the experiment: flow cytometry on gel-purified human platelets.

B1: L0/H0 (Fab, V domains shown)
VH: EVQLVESGGGLVQPGGSLRLSCAASGFTFSAYAMSWVRQAPGKGLVWVSSISSGGTTYYPDSVKRQFTISRDNAKNTLYLQMNSLRAEDMAVYYCTRGGDYGYALDYWGQGTLVTVSS
VL: EIVMTQSPATLSVSPGERATLSCRASSSVNYMYWYQQKPGQAPRLLIYYTSNLAPGIPARFSGSGSGTEFTLTISSLQSEDFAVYYCQQFSSSPWTFGQGTKVEIK
As for B1, in experiment [1], the binding result is “binds”.

B2: humanized 34D10 Fab L3/H0 (Fab, V domains shown)
VH: EVQLVESGGGLVQPGGSLRLSCAASGFTFSAYAMSWVRQAPGKGLVWVSSISSGGTTYYPDSVKRQFTISRDNAKNTLYLQMNSLRAEDMAVYYCTRGGDYGYALDYWGQGTLVTVSS
VL: ENVMTQSPATLSASPGERVTMSCRASSSVNYMYWYQQKPGQSPRLLIYYTSNLAPGVPARFSGSGSGTEYTLTISSLQSEDFAVYYCQQFSSSPWTFGQGTKVEIK
With B2, the binding result in experiment [1] and in experiment [2] was “binds” in each case.

B3: L1/H1 (Fab, V domains shown)
VH: EVQLVQSGGGLVQPGESLRLSCAASGFTFSAYAMSWVRQAPGKGLEWVSSISSGGTTYYPDSVKRRFTISRDNAKNTLYLQMNSLRAEDMAVYYCTRGGDYGYALDYWGQGTLVTVSS
VL: EIVLTQSPATLSVSPGERATLSCRASSSVNYMYWYQQKPGQAPRLLIYYTSNLAPGVPARFSGSGSGTEFTLTISSLQSEDFAVYYCQQFSSSPWTFGQGTKVEIK
Regarding B3, the binding entry in experiment [1] was “binds”.

B4: L1/H4 (Fab, V domains shown)
VH: EVQLVQSGGGLVKPGESLRLSCAASGFTFSAYAMSWVRQAPGKGLEWVASISSGGTTYYPDSVKRRFTISRDNSRNTLYLQMNSLRAEDTAVYYCTRGGDYGYALDYWGQGTLVTVSS
VL: EIVLTQSPATLSVSPGERATLSCRASSSVNYMYWYQQKPGQAPRLLIYYTSNLAPGVPARFSGSGSGTEFTLTISSLQSEDFAVYYCQQFSSSPWTFGQGTKVEIK
For the molecule B4, the binding entry in experiment [1] is listed as “binds”.

B5: L2/H5 (Fab, V domains shown)
VH: EVKLVESGGGLVKPGGSLRLSCAASGFTFSAYAMSWVRQAPGKGLEWVASISSGGTTYYPDSVKRRFTISRDNARNTLYLQMNSLRAEDTAVYYCTRGGDYGYALDYWGQGTLVTVSS
VL: EIVLTQSPATLSASPGERVTMSCRASSSVNYMYWYQQKPGQSPRLLIYYTSNLAPGVPARFSGSGSGTEYTLTISSLQSEDFAVYYCQQFSSSPWTFGQGTKVEIK
Regarding B5, the binding entry in experiment [1] is reported as “binds”.

B6: humanized 34D10 Fab L1/H3 (Fab, V domains shown)
VH: EVQLVQSGGGLVKPGESLRLSCAASGFTFSAYAMSWVRQAPGKGLEWVASISSGGTTYYPDSVKRRFTISRDNAKNTLYLQMNSLRAEDTAVYYCTRGGDYGYALDYWGQGTLVTVSS
VL: EIVLTQSPATLSVSPGERATLSCRASSSVNYMYWYQQKPGQAPRLLIYYTSNLAPGVPARFSGSGSGTEFTLTISSLQSEDFAVYYCQQFSSSPWTFGQGTKVEIK
notes: Fab; only variable domains are tied by name; also called VL1/VH3
Consider B6, for which the binding entry in experiment [1] was “binds”.

B7: humanized 34D10 Fab L3/H4 (Fab, V domains shown)
VH: EVQLVQSGGGLVKPGESLRLSCAASGFTFSAYAMSWVRQAPGKGLEWVASISSGGTTYYPDSVKRRFTISRDNSRNTLYLQMNSLRAEDTAVYYCTRGGDYGYALDYWGQGTLVTVSS
VL: ENVMTQSPATLSASPGERVTMSCRASSSVNYMYWYQQKPGQSPRLLIYYTSNLAPGVPARFSGSGSGTEYTLTISSLQSEDFAVYYCQQFSSSPWTFGQGTKVEIK
Turning to B7, the binding result in experiment [1] and in experiment [2] was “binds” throughout.

B8: L1/H5 (Fab, V domains shown)
VH: EVKLVESGGGLVKPGGSLRLSCAASGFTFSAYAMSWVRQAPGKGLEWVASISSGGTTYYPDSVKRRFTISRDNARNTLYLQMNSLRAEDTAVYYCTRGGDYGYALDYWGQGTLVTVSS
VL: EIVLTQSPATLSVSPGERATLSCRASSSVNYMYWYQQKPGQAPRLLIYYTSNLAPGVPARFSGSGSGTEFTLTISSLQSEDFAVYYCQQFSSSPWTFGQGTKVEIK
B8: the binding result in experiment [1] was “binds”.

B9: L2/H4 (Fab, V domains shown)
VH: EVQLVQSGGGLVKPGESLRLSCAASGFTFSAYAMSWVRQAPGKGLEWVASISSGGTTYYPDSVKRRFTISRDNSRNTLYLQMNSLRAEDTAVYYCTRGGDYGYALDYWGQGTLVTVSS
VL: EIVLTQSPATLSASPGERVTMSCRASSSVNYMYWYQQKPGQSPRLLIYYTSNLAPGVPARFSGSGSGTEYTLTISSLQSEDFAVYYCQQFSSSPWTFGQGTKVEIK
Take B9: the binding result in experiment [1] is “binds”.

B10: humanized 34D10 Fab L0/H1 (Fab, V domains shown)
VH: EVQLVQSGGGLVQPGESLRLSCAASGFTFSAYAMSWVRQAPGKGLEWVSSISSGGTTYYPDSVKRRFTISRDNAKNTLYLQMNSLRAEDMAVYYCTRGGDYGYALDYWGQGTLVTVSS
VL: EIVMTQSPATLSVSPGERATLSCRASSSVNYMYWYQQKPGQAPRLLIYYTSNLAPGIPARFSGSGSGTEFTLTISSLQSEDFAVYYCQQFSSSPWTFGQGTKVEIK
Take B10: the binding entry in experiment [1] and in experiment [2] was “binds” in each case.

B11: L2/H2 (Fab, V domains shown)
VH: EVQLVESGGGLVKPGGSLRLSCAASGFTFSAYAMSWVRQAPGKGLVWVASISSGGTTYYPDSVKRQFTISRDNAKNTLYLQMNSLRAEDTAVYYCTRGGDYGYALDYWGQGTLVTVSS
VL: EIVLTQSPATLSASPGERVTMSCRASSSVNYMYWYQQKPGQSPRLLIYYTSNLAPGVPARFSGSGSGTEYTLTISSLQSEDFAVYYCQQFSSSPWTFGQGTKVEIK
In the case of B11, the binding entry in experiment [1] is reported as “binds”.

B12: humanized 34D10 Fab L3/H2 (Fab, V domains shown)
VH: EVQLVESGGGLVKPGGSLRLSCAASGFTFSAYAMSWVRQAPGKGLVWVASISSGGTTYYPDSVKRQFTISRDNAKNTLYLQMNSLRAEDTAVYYCTRGGDYGYALDYWGQGTLVTVSS
VL: ENVMTQSPATLSASPGERVTMSCRASSSVNYMYWYQQKPGQSPRLLIYYTSNLAPGVPARFSGSGSGTEYTLTISSLQSEDFAVYYCQQFSSSPWTFGQGTKVEIK
As for B12, the binding entry in experiment [1] and in experiment [2] was “binds” throughout.

B13: humanized 34D10 Fab L3/H5 (Fab, V domains shown)
VH: EVKLVESGGGLVKPGGSLRLSCAASGFTFSAYAMSWVRQAPGKGLEWVASISSGGTTYYPDSVKRRFTISRDNARNTLYLQMNSLRAEDTAVYYCTRGGDYGYALDYWGQGTLVTVSS
VL: ENVMTQSPATLSASPGERVTMSCRASSSVNYMYWYQQKPGQSPRLLIYYTSNLAPGVPARFSGSGSGTEYTLTISSLQSEDFAVYYCQQFSSSPWTFGQGTKVEIK
In the case of B13, the binding result in experiment [1] and in experiment [2] was “binds” in each case.

B14: L1/H2 (Fab, V domains shown)
VH: EVQLVESGGGLVKPGGSLRLSCAASGFTFSAYAMSWVRQAPGKGLVWVASISSGGTTYYPDSVKRQFTISRDNAKNTLYLQMNSLRAEDTAVYYCTRGGDYGYALDYWGQGTLVTVSS
VL: EIVLTQSPATLSVSPGERATLSCRASSSVNYMYWYQQKPGQAPRLLIYYTSNLAPGVPARFSGSGSGTEFTLTISSLQSEDFAVYYCQQFSSSPWTFGQGTKVEIK
As for B14, the binding entry in experiment [1] is reported as “binds”.

B15: L2/H3 (Fab, V domains shown)
VH: EVQLVQSGGGLVKPGESLRLSCAASGFTFSAYAMSWVRQAPGKGLEWVASISSGGTTYYPDSVKRRFTISRDNAKNTLYLQMNSLRAEDTAVYYCTRGGDYGYALDYWGQGTLVTVSS
VL: EIVLTQSPATLSASPGERVTMSCRASSSVNYMYWYQQKPGQSPRLLIYYTSNLAPGVPARFSGSGSGTEYTLTISSLQSEDFAVYYCQQFSSSPWTFGQGTKVEIK
As for B15, the binding entry in experiment [1] is given as “binds”.

B16: L2/H0 (Fab, V domains shown)
VH: EVQLVESGGGLVQPGGSLRLSCAASGFTFSAYAMSWVRQAPGKGLVWVSSISSGGTTYYPDSVKRQFTISRDNAKNTLYLQMNSLRAEDMAVYYCTRGGDYGYALDYWGQGTLVTVSS
VL: EIVLTQSPATLSASPGERVTMSCRASSSVNYMYWYQQKPGQSPRLLIYYTSNLAPGVPARFSGSGSGTEYTLTISSLQSEDFAVYYCQQFSSSPWTFGQGTKVEIK
For the molecule B16, the binding entry in experiment [1] is on record as “binds”.

B17: humanized 34D10 Fab L3/H1 (Fab, V domains shown)
VH: EVQLVQSGGGLVQPGESLRLSCAASGFTFSAYAMSWVRQAPGKGLEWVSSISSGGTTYYPDSVKRRFTISRDNAKNTLYLQMNSLRAEDMAVYYCTRGGDYGYALDYWGQGTLVTVSS
VL: ENVMTQSPATLSASPGERVTMSCRASSSVNYMYWYQQKPGQSPRLLIYYTSNLAPGVPARFSGSGSGTEYTLTISSLQSEDFAVYYCQQFSSSPWTFGQGTKVEIK
As for B17, the binding result in experiment [1] and in experiment [2] was “binds” throughout.

B18: L2/H1 (Fab, V domains shown)
VH: EVQLVQSGGGLVQPGESLRLSCAASGFTFSAYAMSWVRQAPGKGLEWVSSISSGGTTYYPDSVKRRFTISRDNAKNTLYLQMNSLRAEDMAVYYCTRGGDYGYALDYWGQGTLVTVSS
VL: EIVLTQSPATLSASPGERVTMSCRASSSVNYMYWYQQKPGQSPRLLIYYTSNLAPGVPARFSGSGSGTEYTLTISSLQSEDFAVYYCQQFSSSPWTFGQGTKVEIK
Consider B18, for which the binding result in experiment [1] is “binds”.

B19: L1/H0 (Fab, V domains shown)
VH: EVQLVESGGGLVQPGGSLRLSCAASGFTFSAYAMSWVRQAPGKGLVWVSSISSGGTTYYPDSVKRQFTISRDNAKNTLYLQMNSLRAEDMAVYYCTRGGDYGYALDYWGQGTLVTVSS
VL: EIVLTQSPATLSVSPGERATLSCRASSSVNYMYWYQQKPGQAPRLLIYYTSNLAPGVPARFSGSGSGTEFTLTISSLQSEDFAVYYCQQFSSSPWTFGQGTKVEIK
On to B19, for which the binding entry in experiment [1] was “binds”.

B20: humanized 34D10 Fab L3/H3 (Fab, V domains shown)
VH: EVQLVQSGGGLVKPGESLRLSCAASGFTFSAYAMSWVRQAPGKGLEWVASISSGGTTYYPDSVKRRFTISRDNAKNTLYLQMNSLRAEDTAVYYCTRGGDYGYALDYWGQGTLVTVSS
VL: ENVMTQSPATLSASPGERVTMSCRASSSVNYMYWYQQKPGQSPRLLIYYTSNLAPGVPARFSGSGSGTEYTLTISSLQSEDFAVYYCQQFSSSPWTFGQGTKVEIK
Take B20: the binding entry in experiment [1] and in experiment [2] was “binds” in each case.
